The supplement of paper PMC4604168 (melanoma cell lines)
The other results are listed elsewhere or left out. Many values rest on one well or one pass, so single values are uncertain.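 Cells were imaged in 1,536-well plates, and nuclei stained with an antibody against cleaved PARP were counted against all DNA-stained nuclei to give the apoptosis fraction. Screening doses were chosen to leave most cells alive, and resting and induced cleaved-PARP levels differ strongly between cell lines.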

Assays:
Assay in all cases: cleaved PARP positive nuclei fraction relative to DMSO control; melanoma cells; higher = more apoptosis
Conditions in all cases: library dose: low library concentration; 72 h
[1] = system: WM115
[2] = system: WM1716
[3] = system: WM1745
[4] = system: WM3526
[5] = system: WM3619
[6] = system: WM451Lu

Compound: Cc1cc(SCc2sc(-c3ccc(C(F)(F)F)c(F)c3)nc2C)ccc1OCC(=O)O + O=c1cc(-c2cccc3c2Sc2ccccc2S3)oc(N2CCOCC2)c1 [KU55933] (first compound 2 µM, partner dose 1 µM)
- cleaved PARP positive nuclei fraction [1]: 93.8%
- cleaved PARP positive nuclei fraction [2]: 61.5%
- cleaved PARP positive nuclei fraction [3]: 111%
- cleaved PARP positive nuclei fraction [4]: 78.8%
- cleaved PARP positive nuclei fraction [5]: 92.8%
- cleaved PARP positive nuclei fraction [6]: 205%

Compound: C[C@]12O[C@H](C[C@]1(O)CO)n1c3ccccc3c3c4c(c5c6ccccc6n2c5c31)CNC4=O [Lestaurtinib] + CS(=O)(=O)c1ccc(C(=O)Nc2ccc(Cl)c(-c3ccccn3)c2)c(Cl)c1 [vismodegib] (first compound 0.004 µM, partner dose 1 µM)
- cleaved PARP positive nuclei fraction [1]: 150%
- cleaved PARP positive nuclei fraction [2]: 172%
- cleaved PARP positive nuclei fraction [3]: 102%
- cleaved PARP positive nuclei fraction [4]: 230%
- cleaved PARP positive nuclei fraction [5]: 84.5%
- cleaved PARP positive nuclei fraction [6]: 131%

Compound: CN(C)S(=O)(=O)c1ccc2c(c1)/C(=C/c1cc3c([nH]1)CCCC3)C(=O)N2 + O=C(Oc1ccc([N+](=O)[O-])cc1)N1CCC(C(O)(c2ccc3c(c2)OCO3)c2ccc3c(c2)OCO3)CC1 [JZL184] (first compound 0.4 µM, partner dose 1 µM)
- cleaved PARP positive nuclei fraction [1]: 86.4%
- cleaved PARP positive nuclei fraction [2]: 101%
- cleaved PARP positive nuclei fraction [3]: 104%
- cleaved PARP positive nuclei fraction [4]: 56.2%
- cleaved PARP positive nuclei fraction [5]: 70.2%
- cleaved PARP positive nuclei fraction [6]: 30.9%

Compound: Cc1ccc(Nc2nccc(N(C)c3ccc4c(C)n(C)nc4c3)n2)cc1S(N)(=O)=O [Pazopanib] + Cn1cc(C2=C(c3cn(C4CCN(Cc5ccccn5)CC4)c4ccccc34)C(=O)NC2=O)c2ccccc21 [Enzastaurin] (first compound 0.4 µM, partner dose 0.8 µM)
- cleaved PARP positive nuclei fraction [1]: 96.5%
- cleaved PARP positive nuclei fraction [2]: 77.2%
- cleaved PARP positive nuclei fraction [3]: 107%
- cleaved PARP positive nuclei fraction [4]: 44.5%
- cleaved PARP positive nuclei fraction [5]: 84.1%
- cleaved PARP positive nuclei fraction [6]: 125%

Compound: N.N.[Cl][Pt][Cl] [cisplatin] + Cn1nnc2c(C(N)=O)ncn2c1=O [temozolomide] (first compound 1.6 µM, partner dose 2 µM)
- cleaved PARP positive nuclei fraction [1]: 101%
- cleaved PARP positive nuclei fraction [2]: 73.6%
- cleaved PARP positive nuclei fraction [3]: 94.1%
- cleaved PARP positive nuclei fraction [4]: 34.5%
- cleaved PARP positive nuclei fraction [5]: 103%
- cleaved PARP positive nuclei fraction [6]: 128%

Compound: C[C@]12O[C@H](C[C@]1(O)CO)n1c3ccccc3c3c4c(c5c6ccccc6n2c5c31)CNC4=O [Lestaurtinib] + Nc1cccc2c1CN(C1CCC(=O)NC1=O)C2=O [lenalidomide] (first compound 0.004 µM, partner dose 1 µM)
- cleaved PARP positive nuclei fraction [1]: 103%
- cleaved PARP positive nuclei fraction [2]: 34.5%
- cleaved PARP positive nuclei fraction [3]: 90.6%
- cleaved PARP positive nuclei fraction [4]: 88.1%
- cleaved PARP positive nuclei fraction [5]: 88.5%
- cleaved PARP positive nuclei fraction [6]: 43.6%

Compound: Cn1cnc2c(F)c(Nc3ccc(Br)cc3Cl)c(C(=O)NOCCO)cc21 [selumetinib] + Cn1cc(C2=C(c3cn(C4CCN(Cc5ccccn5)CC4)c4ccccc34)C(=O)NC2=O)c2ccccc21 [Enzastaurin] (first compound 0.015 µM, partner dose 0.8 µM)
- cleaved PARP positive nuclei fraction [1]: 101%
- cleaved PARP positive nuclei fraction [2]: 61.5%
- cleaved PARP positive nuclei fraction [3]: 89.7%
- cleaved PARP positive nuclei fraction [4]: 49.3%
- cleaved PARP positive nuclei fraction [5]: 134%
- cleaved PARP positive nuclei fraction [6]: 23.2%

Compound: Cn1cc(C2=C(c3cn(C4CCN(Cc5ccccn5)CC4)c4ccccc34)C(=O)NC2=O)c2ccccc21 [Enzastaurin] + Cc1ccc(NC(=O)c2cccc(N(C)C)c2)cc1NC(=O)c1ccc(O)cc1 [ZM336372] (first compound 0.8 µM, partner dose 2 µM)
- cleaved PARP positive nuclei fraction [1]: 105%
- cleaved PARP positive nuclei fraction [2]: 127%
- cleaved PARP positive nuclei fraction [3]: 309%
- cleaved PARP positive nuclei fraction [4]: 67.3%
- cleaved PARP positive nuclei fraction [5]: 88.3%
- cleaved PARP positive nuclei fraction [6]: 189%

Compound: Nc1ccn([C@@H]2O[C@H](CO)[C@@H](O)C2(F)F)c(=O)n1 [gemcitabine] + C/C(O)=C(\C#N)C(=O)Nc1cc(Br)ccc1Br [LFM-A13] (first compound 0.0004 µM, partner dose 2 µM)
- cleaved PARP positive nuclei fraction [1]: 123%
- cleaved PARP positive nuclei fraction [2]: 316%
- cleaved PARP positive nuclei fraction [3]: 127%
- cleaved PARP positive nuclei fraction [4]: 84.9%
- cleaved PARP positive nuclei fraction [5]: 133%
- cleaved PARP positive nuclei fraction [6]: 153%

Compound: C[As](C)SC[C@H](NC(=O)CC[C@H](N)C(=O)O)C(=O)NCC(=O)O [Darinaparsin] + COc1cc2c(Oc3ccc4[nH]c(C)cc4c3F)ncnc2cc1OCCCN1CCCC1 [cediranib] (first compound 0.4 µM, partner dose 0.4 µM)
- cleaved PARP positive nuclei fraction [1]: 215%
- cleaved PARP positive nuclei fraction [2]: 90.6%
- cleaved PARP positive nuclei fraction [3]: 96.6%
- cleaved PARP positive nuclei fraction [4]: 51.7%
- cleaved PARP positive nuclei fraction [5]: 81.1%
- cleaved PARP positive nuclei fraction [6]: 55.1%

Compound: C[C@]12O[C@H](C[C@]1(O)CO)n1c3ccccc3c3c4c(c5c6ccccc6n2c5c31)CNC4=O [Lestaurtinib] + COc1ccc2c(c1)CCC1C2CCC2(C)C(NCCCCCCN3C(=O)C=CC3=O)CCC12 [U73122] (first compound 0.004 µM, partner dose 0.4 µM)
- cleaved PARP positive nuclei fraction [1]: 102%
- cleaved PARP positive nuclei fraction [2]: 210%
- cleaved PARP positive nuclei fraction [3]: 92.4%
- cleaved PARP positive nuclei fraction [4]: 70.1%
- cleaved PARP positive nuclei fraction [5]: 114%
- cleaved PARP positive nuclei fraction [6]: 32.1%

Compound: C[C@]12O[C@H](C[C@]1(O)CO)n1c3ccccc3c3c4c(c5c6ccccc6n2c5c31)CNC4=O [Lestaurtinib] + Nc1ncn([C@H]2C[C@H](O)[C@@H](CO)O2)c(=O)n1 [decitabine] (first compound 0.004 µM, partner dose 0.1 µM)
- cleaved PARP positive nuclei fraction [1]: 115%
- cleaved PARP positive nuclei fraction [2]: 75%
- cleaved PARP positive nuclei fraction [3]: 109%
- cleaved PARP positive nuclei fraction [4]: 198%
- cleaved PARP positive nuclei fraction [5]: 106%
- cleaved PARP positive nuclei fraction [6]: 127%

Compound: Nc1ncn([C@H]2C[C@H](O)[C@@H](CO)O2)c(=O)n1 [decitabine] + C[As](C)SC[C@H](NC(=O)CC[C@H](N)C(=O)O)C(=O)NCC(=O)O [Darinaparsin] (first compound 0.1 µM, partner dose 0.4 µM)
- cleaved PARP positive nuclei fraction [1]: 61.4%
- cleaved PARP positive nuclei fraction [2]: 206%
- cleaved PARP positive nuclei fraction [3]: 92.8%
- cleaved PARP positive nuclei fraction [4]: 48%
- cleaved PARP positive nuclei fraction [5]: 99.2%
- cleaved PARP positive nuclei fraction [6]: 97.6%
